# Source: paper PMC8110579
# Protein sequences, listed by entry. Tags and fused reporters are not part of them.
# UniProt Q8TDG2: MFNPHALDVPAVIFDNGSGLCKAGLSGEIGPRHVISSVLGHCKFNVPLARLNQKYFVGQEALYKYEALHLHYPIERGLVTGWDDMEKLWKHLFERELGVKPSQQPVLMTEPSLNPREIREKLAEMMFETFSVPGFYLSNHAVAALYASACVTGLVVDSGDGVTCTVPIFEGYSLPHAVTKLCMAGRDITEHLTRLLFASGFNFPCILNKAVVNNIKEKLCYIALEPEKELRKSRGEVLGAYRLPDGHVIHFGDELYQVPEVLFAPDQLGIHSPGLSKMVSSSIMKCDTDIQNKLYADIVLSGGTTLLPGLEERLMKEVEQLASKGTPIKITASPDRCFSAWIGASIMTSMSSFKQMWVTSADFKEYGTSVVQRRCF
# UniProt O95816: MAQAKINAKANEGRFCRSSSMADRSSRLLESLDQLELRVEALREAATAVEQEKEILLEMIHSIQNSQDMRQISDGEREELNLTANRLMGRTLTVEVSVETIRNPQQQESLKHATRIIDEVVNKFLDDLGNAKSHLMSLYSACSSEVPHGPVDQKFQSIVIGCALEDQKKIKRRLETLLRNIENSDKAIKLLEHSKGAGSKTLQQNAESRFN
# UniProt P50990: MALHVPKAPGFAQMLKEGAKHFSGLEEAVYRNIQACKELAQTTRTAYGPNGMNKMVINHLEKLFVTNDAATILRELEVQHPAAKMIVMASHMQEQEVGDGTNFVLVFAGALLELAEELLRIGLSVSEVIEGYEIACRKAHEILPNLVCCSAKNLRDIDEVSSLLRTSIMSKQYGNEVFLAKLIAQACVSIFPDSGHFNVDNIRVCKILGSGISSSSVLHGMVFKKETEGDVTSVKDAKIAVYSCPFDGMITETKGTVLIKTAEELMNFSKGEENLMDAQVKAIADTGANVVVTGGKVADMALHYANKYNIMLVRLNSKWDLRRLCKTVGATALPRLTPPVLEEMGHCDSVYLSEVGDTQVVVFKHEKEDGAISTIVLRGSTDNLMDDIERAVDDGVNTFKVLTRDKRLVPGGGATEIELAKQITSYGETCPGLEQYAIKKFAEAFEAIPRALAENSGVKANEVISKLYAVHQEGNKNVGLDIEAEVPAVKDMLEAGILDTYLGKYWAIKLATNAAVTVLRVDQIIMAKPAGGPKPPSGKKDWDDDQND
# UniProt P11142: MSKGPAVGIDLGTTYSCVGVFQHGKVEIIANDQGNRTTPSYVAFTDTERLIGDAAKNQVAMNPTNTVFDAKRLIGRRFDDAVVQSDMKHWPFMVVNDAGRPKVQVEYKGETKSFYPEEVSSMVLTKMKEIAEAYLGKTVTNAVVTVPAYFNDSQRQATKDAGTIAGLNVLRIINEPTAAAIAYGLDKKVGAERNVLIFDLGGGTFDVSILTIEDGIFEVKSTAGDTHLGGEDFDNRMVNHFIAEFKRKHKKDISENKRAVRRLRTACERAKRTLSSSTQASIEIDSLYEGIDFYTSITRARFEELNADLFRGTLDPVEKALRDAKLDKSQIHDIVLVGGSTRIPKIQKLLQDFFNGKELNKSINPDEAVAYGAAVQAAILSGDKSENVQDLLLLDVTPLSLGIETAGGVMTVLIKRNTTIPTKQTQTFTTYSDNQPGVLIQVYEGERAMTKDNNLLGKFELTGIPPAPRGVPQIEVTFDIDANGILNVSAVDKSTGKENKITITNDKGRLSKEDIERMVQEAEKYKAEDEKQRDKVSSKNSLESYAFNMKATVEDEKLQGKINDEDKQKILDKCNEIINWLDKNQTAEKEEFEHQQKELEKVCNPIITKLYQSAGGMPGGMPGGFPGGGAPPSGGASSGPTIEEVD
# These are yes or no findings as the source states them, for the method shown. Binding seen in cells or lysates may run through a third protein. Some binding calls cover weakened binding; strength is not graded here. For part of these data: Sequences can lack the tags named with a protein.
# T1: EHD4 tagged with V5 (UniProt Q9H223)
# T1 sequence: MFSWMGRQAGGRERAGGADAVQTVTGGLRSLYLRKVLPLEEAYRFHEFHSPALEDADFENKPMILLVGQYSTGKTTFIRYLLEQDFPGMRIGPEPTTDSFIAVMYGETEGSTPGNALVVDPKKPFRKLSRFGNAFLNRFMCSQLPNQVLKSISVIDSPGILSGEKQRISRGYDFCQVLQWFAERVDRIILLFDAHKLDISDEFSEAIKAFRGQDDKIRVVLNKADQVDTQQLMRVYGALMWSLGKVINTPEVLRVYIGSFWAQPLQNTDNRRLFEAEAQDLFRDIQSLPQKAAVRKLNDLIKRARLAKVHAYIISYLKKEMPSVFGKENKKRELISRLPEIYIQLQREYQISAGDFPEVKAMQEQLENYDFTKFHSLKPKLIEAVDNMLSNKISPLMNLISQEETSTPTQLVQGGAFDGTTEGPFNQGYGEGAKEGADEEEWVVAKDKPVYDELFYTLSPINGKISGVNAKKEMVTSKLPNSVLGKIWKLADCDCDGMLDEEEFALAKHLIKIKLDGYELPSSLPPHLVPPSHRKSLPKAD
# B1: Septin-2 (protein, UniProt Q15019 1-361)
# chain: MSKQQPTQFINPETPGYVGFANLPNQVHRKSVKKGFEFTLMVVGESGLGKSTLINSLFLTDLYPERVIPGAAEKIERTVQIEASTVEIEERGVKLRLTVVDTPGYGDAINCRDCFKTIISYIDEQFERYLHDESGLNRRHIIDNRVHCCFYFISPFGHGLKPLDVAFMKAIHNKVNIVPVIAKADTLTLKERERLKKRILDEIEEHNIKIYHLPDAESDEDEDFKEQTRLLKASIPFSVVGSNQLIEAKGKKVRGRLYPWGVVEVENPEHNDFLKLRTMLITHMQDLQEVTQDLHYENFRSERLKRGGRKVENEDMNKDQILLEKEAELRRMQEMIARMQAQMQMQMQGGDGDGGALGHHV
# B2: EH domain containing protein 4 (EHD4) (protein, UniProt Q9H223 1-541)
# chain: T1 sequence
# B3: Septin-9 (protein, UniProt Q9UHD8 1-586)
# chain: MKKSYSGGTRTSSGRLRRLGDSSGPALKRSFEVEEVETPNSTPPRRVQTPLLRATVASSTQKFQDLGVKNSEPSARHVDSLSQRSPKASLRRVELSGPKAAEPVSRRTELSIDISSKQVENAGAIGPSRFGLKRAEVLGHKTPEPAPRRTEITIVKPQESAHRRMEPPASKVPEVPTAPATDAAPKRVEIQMPKPAEAPTAPSPAQTLENSEPAPVSQLQSRLEPKPQPPVAEATPRSQEATEAAPSCVGDMADTPRDAGLKQAPASRNEKAPVDFGYVGIDSILEQMRRKAMKQGFEFNIMVVGQSGLGKSTLINTLFKSKISRKSVQPTSEERIPKTIEIKSITHDIEEKGVRMKLTVIDTPGFGDHINNENCWQPIMKFINDQYEKYLQEEVNINRKKRIPDTRVHCCLYFIPATGHSLRPLDIEFMKRLSKVVNIVPVIAKADTLTLEERVHFKQRITADLLSNGIDVYPQKEFDEDSEDRLVNEKFREMIPFAVVGSDHEYQVNGKRILGRKTKWGTIEVENTTHCEFAYLRDLLIRTHMQNIKDITSSIHFEAYRVKRLNEGSSAMANGMEEKEPEAPEM
# Target: Actin-Related Protein-Testis1 (ARP-T1), wild type, tagged with DDK (human) (UniProt Q8TDG2)
# Experiment: co-IP; ARP-T1-DDK from transduced HeLa (Fig. 3a) and hTERT-RPE1 (Fig. 3b) cells precipitated with anti-FLAG M2 affinity gel overnight at 4 °C and 1 h at RT, five washes with TBS; immunoblot with antisera to the co-precipitated proteins
row,binding,Molecule
1,binds,BAG family molecular chaperone regulator 2 (BAG 2) (from UniProt O95816 1-211)
2,binds,T-complex protein 1 subunit theta (TCP1 theta) (from UniProt P50990 1-548)
3,binds,Heat shock cognate 71 kDa protein (from UniProt P11142 1-646)
4,binds,B1
5,binds,B2
6,binds,B3

# Target: T1, EHD4 tagged with V5
# Experiment: co-IP; hTERT-RPE1 cells transfected with EHD4-V5 or V5 vector control; immunoprecipitation with anti-V5 beads, immunoblot for ARP-T1
row,binding,Molecule
1,binds,"ARP-T1 (untagged, detected with ARP-T1 antibody) (from UniProt Q8TDG2 1-376)"

# Target: ARP-T1 (untagged, detected with ARP-T1 antibody) (human (endogenous in hTERT-RPE1)) (UniProt Q8TDG2)
# Experiment: proximity ligation; proximity ligation assays (Supplementary Fig. 1f, g); cells and antibodies not told in the text shown
row,binding,Molecule
1,binds,B1
2,binds,B2
